According to patent publication US6653327B2, “Cross-regulin composition of tumeric-derived tetrahydrocurcuminoids for skin lightening and protection against UVB rays” (Sabinsa Corporation, priority 1999, dated 2003):
In brackets after ≈: the same amount, converted by molar mass. For at least one compound, name, drawing or mass did not settle the structure.

Molecular target: tyrosinase
Experiment: Tyrosinase inhibition assay (method of Sakuma et al)
Type: biochemical

Structure (SMILES): COc1cc(CCC(=O)CC(=O)CCc2ccc(O)c(OC)c2)ccc1O [THC3, tetrahydrocurcumin]
- IC50 on tyrosinase: 0.0492 ng/mL (≈ 0.132 nM)
